Results as given in paper PMC5834211.
Results are given in words; binding and its absence hold for the method and conditions named. Binding seen in cells or lysates may run through a third protein. Binding calls can cover weak binding; strength is not graded here. Where a sequence is shown, tags or fusion partners need not be part of it. Blank lines part the entries; values can stand above or below the binder they belong to.

Target: Flag-N-MDA5 (CARD domain-containing N-terminal fragment of MDA5)
Test: co-IP; 293T cells cotransfected; whole cell lysates immunoprecipitated with anti-Flag beads, immunoblotted with anti-HA and anti-Flag (S5A, Fig 5I, S6A); in S5E with 20 ng Flag-MDA5 and intracellular HMW Poly(I:C) at the indicated time points

binding: binds
B1: HA-DHX29 (full-length, FL-DHX29) (protein, UniProt Q7Z478 1-1369)
chain: MGGKNKKHKAPAAAVVRAAVSASRAKSAEAGIAGEAQSKKPVSRPATAAAAAAGSREPRVKQGPKIYSFNSTNDSSGPANLDKSILKVVINNKLEQRIIGVINEHKKQNNDKGMISGRLTAKKLQDLYMALQAFSFKTKDIEDAMTNTLLYGGDLHSALDWLCLNLSDDALPEGFSQEFEEQQPKSRPKFQSPQIQATISPPLQPKTKTYEEDPKSKPKKEEKNMEVNMKEWILRYAEQQNEEEKNENSKSLEEEEKFDPNERYLHLAAKLLDAKEQAATFKLEKNKQGQKEAQEKIRKFQREMETLEDHPVFNPAMKISHQQNERKKPPVATEGESALNFNLFEKSAAATEEEKDKKKEPHDVRNFDYTARSWTGKSPKQFLIDWVRKNLPKSPNPSFEKVPVGRYWKCRVRVIKSEDDVLVVCPTILTEDGMQAQHLGATLALYRLVKGQSVHQLLPPTYRDVWLEWSDAEKKREELNKMETNKPRDLFIAKLLNKLKQQQQQQQQHSENKRENSEDPEESWENLVSDEDFSALSLESANVEDLEPVRNLFRKLQSTPKYQKLLKERQQLPVFKHRDSIVETLKRHRVVVVAGETGSGKSTQVPHFLLEDLLLNEWEASKCNIVCTQPRRISAVSLANRVCDELGCENGPGGRNSLCGYQIRMESRACESTRLLYCTTGVLLRKLQEDGLLSNVSHVIVDEVHERSVQSDFLLIILKEILQKRSDLHLILMSATVDSEKFSTYFTHCPILRISGRSYPVEVFHLEDIIEETGFVLEKDSEYCQKFLEEEEEVTINVTSKAGGIKKYQEYIPVQTGAHADLNPFYQKYSSRTQHAILYMNPHKINLDLILELLAYLDKSPQFRNIEGAVLIFLPGLAHIQQLYDLLSNDRRFYSERYKVIALHSILSTQDQAAAFTLPPPGVRKIVLATNIAETGITIPDVVFVIDTGRTKENKYHESSQMSSLVETFVSKASALQRQGRAGRVRDGFCFRMYTRERFEGFMDYSVPEILRVPLEELCLHIMKCNLGSPEDFLSKALDPPQLQVISNAMNLLRKIGACELNEPKLTPLGQHLAALPVNVKIGKMLIFGAIFGCLDPVATLAAVMTEKSPFTTPIGRKDEADLAKSALAMADSDHLTIYNAYLGWKKARQEGGYRSEITYCRRNFLNRTSLLTLEDVKQELIKLVKAAGFSSSTTSTSWEGNRASQTLSFQEIALLKAVLVAGLYDNVGKIIYTKSVDVTEKLACIVETAQGKAQVHPSSVNRDLQTHGWLLYQEKIRYARVYLRETTLITPFPVLLFGGDIEVQHRERLLSIDGWIYFQAPVKIAVIFKQLRVLIDSVLRKKLENPKMSLENDKILQIITELIKTENN

binding: binds
B2: HA-DHX29a [1-530 aa] (domain or fragment, UniProt Q7Z478 1-530)
chain: MGGKNKKHKAPAAAVVRAAVSASRAKSAEAGIAGEAQSKKPVSRPATAAAAAAGSREPRVKQGPKIYSFNSTNDSSGPANLDKSILKVVINNKLEQRIIGVINEHKKQNNDKGMISGRLTAKKLQDLYMALQAFSFKTKDIEDAMTNTLLYGGDLHSALDWLCLNLSDDALPEGFSQEFEEQQPKSRPKFQSPQIQATISPPLQPKTKTYEEDPKSKPKKEEKNMEVNMKEWILRYAEQQNEEEKNENSKSLEEEEKFDPNERYLHLAAKLLDAKEQAATFKLEKNKQGQKEAQEKIRKFQREMETLEDHPVFNPAMKISHQQNERKKPPVATEGESALNFNLFEKSAAATEEEKDKKKEPHDVRNFDYTARSWTGKSPKQFLIDWVRKNLPKSPNPSFEKVPVGRYWKCRVRVIKSEDDVLVVCPTILTEDGMQAQHLGATLALYRLVKGQSVHQLLPPTYRDVWLEWSDAEKKREELNKMETNKPRDLFIAKLLNKLKQQQQQQQQHSENKRENSEDPEESWENLVSD
